The record followed here is paper PMC11130243.

By UniProt entry, the sequences of proteins in these tests, tags left out. Residues count along the entry.
UniProt P42224: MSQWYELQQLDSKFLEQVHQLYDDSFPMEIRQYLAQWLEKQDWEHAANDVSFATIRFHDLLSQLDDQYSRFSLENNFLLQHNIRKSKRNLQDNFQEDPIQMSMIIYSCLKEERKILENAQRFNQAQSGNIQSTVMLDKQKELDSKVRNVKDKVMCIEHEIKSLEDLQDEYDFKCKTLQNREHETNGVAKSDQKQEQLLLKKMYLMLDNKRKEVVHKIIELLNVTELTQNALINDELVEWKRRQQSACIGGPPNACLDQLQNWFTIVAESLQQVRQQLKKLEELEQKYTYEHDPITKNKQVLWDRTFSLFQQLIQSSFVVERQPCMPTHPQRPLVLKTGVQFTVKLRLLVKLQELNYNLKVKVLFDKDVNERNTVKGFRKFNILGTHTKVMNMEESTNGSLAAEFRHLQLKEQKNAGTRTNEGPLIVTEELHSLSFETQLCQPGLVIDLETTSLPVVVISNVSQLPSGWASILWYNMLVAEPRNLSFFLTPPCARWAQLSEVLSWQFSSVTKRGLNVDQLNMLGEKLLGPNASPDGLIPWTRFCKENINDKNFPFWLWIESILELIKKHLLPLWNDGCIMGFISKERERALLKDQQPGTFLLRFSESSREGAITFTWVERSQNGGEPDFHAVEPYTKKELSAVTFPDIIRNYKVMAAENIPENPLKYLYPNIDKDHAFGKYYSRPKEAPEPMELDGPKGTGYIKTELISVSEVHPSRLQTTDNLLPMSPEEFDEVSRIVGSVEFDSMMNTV
UniProt P52630: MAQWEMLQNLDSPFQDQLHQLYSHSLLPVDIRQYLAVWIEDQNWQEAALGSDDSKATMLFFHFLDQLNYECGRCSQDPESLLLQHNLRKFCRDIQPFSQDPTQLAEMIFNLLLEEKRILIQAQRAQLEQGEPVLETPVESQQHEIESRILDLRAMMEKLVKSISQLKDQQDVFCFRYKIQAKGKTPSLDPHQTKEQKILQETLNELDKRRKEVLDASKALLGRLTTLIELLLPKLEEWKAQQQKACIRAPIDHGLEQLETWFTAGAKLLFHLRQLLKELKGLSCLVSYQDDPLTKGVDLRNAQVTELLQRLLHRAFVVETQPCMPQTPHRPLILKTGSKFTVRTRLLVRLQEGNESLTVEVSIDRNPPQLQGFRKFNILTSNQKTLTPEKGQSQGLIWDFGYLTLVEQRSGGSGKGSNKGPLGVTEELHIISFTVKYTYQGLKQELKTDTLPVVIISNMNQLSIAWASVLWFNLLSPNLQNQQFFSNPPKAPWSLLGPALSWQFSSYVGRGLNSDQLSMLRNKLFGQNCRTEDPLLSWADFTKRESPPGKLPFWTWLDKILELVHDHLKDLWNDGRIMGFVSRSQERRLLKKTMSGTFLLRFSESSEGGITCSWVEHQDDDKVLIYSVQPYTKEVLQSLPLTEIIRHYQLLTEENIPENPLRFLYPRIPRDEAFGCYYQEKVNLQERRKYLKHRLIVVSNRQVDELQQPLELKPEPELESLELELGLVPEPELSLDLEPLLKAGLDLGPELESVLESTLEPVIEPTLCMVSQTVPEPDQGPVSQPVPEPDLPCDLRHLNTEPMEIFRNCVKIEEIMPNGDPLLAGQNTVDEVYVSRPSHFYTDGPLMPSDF
UniProt O60884: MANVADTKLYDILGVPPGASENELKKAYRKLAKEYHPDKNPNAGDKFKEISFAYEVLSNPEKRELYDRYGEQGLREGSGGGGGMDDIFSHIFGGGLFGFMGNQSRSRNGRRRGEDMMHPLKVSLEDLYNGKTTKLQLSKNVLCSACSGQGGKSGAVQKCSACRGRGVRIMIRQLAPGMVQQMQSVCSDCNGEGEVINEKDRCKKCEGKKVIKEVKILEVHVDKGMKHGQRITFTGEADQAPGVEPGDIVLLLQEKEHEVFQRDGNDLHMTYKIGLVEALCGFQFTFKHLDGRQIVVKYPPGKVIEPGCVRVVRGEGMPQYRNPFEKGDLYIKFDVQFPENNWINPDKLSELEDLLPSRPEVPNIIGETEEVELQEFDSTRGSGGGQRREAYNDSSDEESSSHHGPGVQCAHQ
UniProt Q15717: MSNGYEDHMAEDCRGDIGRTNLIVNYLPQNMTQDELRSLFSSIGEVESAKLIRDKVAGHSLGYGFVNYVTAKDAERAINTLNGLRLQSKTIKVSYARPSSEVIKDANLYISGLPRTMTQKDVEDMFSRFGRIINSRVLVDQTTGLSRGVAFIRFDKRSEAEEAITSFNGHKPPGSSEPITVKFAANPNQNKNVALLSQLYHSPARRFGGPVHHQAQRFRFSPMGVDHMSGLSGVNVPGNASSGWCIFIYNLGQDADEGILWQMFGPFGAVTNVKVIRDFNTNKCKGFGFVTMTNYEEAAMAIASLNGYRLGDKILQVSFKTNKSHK
UniProt P40189, residues 23-918: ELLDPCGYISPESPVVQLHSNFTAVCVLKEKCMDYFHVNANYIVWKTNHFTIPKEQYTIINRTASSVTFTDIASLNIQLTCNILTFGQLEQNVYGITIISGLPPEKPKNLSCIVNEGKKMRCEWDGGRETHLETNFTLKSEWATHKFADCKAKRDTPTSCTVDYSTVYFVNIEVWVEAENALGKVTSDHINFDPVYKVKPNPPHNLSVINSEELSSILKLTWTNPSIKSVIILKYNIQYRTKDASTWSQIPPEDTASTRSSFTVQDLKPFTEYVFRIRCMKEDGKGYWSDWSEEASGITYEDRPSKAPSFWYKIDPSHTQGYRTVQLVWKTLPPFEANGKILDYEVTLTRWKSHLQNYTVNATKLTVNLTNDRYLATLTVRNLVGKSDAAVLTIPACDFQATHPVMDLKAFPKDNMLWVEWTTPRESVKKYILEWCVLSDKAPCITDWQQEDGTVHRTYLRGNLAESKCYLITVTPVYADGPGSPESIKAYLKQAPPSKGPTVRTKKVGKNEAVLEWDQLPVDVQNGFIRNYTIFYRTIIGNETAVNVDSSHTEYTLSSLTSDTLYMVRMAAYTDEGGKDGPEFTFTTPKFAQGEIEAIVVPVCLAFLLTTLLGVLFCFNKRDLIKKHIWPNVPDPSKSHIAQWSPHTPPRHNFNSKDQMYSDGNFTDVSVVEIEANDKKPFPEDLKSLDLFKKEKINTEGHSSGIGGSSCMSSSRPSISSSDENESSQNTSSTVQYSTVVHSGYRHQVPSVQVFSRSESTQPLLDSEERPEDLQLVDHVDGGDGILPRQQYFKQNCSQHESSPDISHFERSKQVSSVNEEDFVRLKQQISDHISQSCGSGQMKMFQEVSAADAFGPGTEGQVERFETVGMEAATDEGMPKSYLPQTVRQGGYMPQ
UniProt Q9H0B6: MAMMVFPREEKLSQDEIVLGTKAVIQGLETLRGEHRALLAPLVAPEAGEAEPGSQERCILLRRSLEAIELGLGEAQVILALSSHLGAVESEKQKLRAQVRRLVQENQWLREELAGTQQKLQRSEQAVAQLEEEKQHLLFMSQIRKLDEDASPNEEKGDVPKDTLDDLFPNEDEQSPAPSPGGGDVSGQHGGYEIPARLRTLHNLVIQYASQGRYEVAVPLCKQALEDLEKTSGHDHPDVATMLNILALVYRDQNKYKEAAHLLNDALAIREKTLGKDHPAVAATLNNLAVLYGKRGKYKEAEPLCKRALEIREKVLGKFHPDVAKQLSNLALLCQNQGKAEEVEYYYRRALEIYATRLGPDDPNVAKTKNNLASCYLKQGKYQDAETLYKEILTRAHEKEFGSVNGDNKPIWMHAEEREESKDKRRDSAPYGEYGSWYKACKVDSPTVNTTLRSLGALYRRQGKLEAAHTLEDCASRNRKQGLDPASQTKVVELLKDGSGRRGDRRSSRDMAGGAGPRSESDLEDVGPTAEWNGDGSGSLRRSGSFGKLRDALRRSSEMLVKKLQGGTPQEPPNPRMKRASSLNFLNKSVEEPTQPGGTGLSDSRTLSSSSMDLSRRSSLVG
UniProt Q93008: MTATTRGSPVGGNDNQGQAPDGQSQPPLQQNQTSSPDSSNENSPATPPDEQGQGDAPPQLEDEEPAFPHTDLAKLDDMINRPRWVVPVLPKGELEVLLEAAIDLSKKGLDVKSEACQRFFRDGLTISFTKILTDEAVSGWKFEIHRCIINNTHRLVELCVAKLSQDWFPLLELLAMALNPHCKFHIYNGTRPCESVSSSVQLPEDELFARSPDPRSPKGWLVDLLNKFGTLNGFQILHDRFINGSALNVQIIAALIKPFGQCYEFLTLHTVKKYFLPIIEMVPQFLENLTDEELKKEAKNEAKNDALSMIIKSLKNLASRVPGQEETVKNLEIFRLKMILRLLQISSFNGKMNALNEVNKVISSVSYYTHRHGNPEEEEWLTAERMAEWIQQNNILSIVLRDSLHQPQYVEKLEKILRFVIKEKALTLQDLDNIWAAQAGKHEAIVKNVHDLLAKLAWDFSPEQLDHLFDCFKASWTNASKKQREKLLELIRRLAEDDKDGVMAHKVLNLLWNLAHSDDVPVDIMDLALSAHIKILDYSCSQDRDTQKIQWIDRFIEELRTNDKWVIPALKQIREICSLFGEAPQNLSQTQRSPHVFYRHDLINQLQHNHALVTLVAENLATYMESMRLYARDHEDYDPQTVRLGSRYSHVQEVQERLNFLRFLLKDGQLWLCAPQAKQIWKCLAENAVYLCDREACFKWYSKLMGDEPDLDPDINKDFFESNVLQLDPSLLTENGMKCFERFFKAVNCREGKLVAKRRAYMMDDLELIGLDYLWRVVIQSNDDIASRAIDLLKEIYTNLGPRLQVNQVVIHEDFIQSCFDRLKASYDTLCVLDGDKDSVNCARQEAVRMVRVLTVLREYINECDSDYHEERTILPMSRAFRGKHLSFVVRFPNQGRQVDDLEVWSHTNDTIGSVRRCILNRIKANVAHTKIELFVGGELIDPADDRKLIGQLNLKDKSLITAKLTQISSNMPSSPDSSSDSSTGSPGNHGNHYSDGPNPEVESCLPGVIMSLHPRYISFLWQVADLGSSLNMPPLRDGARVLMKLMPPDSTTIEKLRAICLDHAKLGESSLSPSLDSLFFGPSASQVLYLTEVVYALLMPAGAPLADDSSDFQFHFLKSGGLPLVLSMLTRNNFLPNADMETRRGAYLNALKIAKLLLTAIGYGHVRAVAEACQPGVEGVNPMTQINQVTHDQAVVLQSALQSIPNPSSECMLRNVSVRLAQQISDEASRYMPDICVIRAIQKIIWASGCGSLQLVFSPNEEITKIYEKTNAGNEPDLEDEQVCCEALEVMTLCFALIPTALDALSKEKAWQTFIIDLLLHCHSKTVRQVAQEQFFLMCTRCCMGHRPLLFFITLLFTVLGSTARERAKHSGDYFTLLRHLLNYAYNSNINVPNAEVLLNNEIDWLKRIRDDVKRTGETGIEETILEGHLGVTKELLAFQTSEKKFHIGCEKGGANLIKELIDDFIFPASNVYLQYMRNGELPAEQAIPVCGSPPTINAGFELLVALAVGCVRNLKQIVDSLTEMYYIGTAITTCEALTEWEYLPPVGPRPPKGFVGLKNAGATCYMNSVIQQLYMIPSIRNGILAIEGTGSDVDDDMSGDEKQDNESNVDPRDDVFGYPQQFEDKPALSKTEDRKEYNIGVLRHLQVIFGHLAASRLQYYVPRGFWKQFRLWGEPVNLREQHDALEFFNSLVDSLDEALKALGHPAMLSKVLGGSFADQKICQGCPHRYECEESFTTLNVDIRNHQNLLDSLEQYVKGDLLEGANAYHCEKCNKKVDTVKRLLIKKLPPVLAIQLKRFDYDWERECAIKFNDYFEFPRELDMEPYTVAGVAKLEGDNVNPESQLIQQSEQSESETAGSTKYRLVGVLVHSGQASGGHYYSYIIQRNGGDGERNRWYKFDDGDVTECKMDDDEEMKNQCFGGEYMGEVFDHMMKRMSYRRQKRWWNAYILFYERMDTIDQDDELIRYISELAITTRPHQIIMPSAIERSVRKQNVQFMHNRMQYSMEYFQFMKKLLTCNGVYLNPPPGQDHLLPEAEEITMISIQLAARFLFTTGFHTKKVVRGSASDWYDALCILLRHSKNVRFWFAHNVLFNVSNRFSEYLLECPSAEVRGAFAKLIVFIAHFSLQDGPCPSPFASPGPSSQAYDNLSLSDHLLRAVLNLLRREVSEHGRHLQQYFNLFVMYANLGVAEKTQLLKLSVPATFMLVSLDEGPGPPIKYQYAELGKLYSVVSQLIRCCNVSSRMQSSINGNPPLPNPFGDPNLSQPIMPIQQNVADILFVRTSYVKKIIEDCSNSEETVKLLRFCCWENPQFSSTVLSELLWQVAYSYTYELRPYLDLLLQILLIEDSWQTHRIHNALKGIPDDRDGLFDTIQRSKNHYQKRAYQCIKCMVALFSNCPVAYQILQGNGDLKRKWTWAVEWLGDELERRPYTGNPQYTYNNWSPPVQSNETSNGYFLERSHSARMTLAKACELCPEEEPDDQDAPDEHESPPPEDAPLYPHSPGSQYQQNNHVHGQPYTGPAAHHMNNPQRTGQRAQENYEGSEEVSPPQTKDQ

Assay [1] has as its target T1, TurboID-V5-IRF9 (human) (UniProt Q00978).
T1 sequence: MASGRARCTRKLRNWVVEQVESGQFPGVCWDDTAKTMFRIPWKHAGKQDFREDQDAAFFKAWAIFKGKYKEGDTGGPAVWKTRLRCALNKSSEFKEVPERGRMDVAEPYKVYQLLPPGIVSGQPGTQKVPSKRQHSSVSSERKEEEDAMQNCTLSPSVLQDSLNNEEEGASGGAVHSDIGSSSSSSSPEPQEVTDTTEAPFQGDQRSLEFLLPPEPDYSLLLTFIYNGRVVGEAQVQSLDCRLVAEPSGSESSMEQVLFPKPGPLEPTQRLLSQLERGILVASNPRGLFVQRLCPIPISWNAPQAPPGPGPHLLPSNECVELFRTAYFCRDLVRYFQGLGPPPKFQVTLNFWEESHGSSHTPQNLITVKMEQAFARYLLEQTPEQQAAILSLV
The assay can be described thus: proximity labelling; TurboID-tagged bait stably expressed in MRC-5/hTERT; serum-starved 20 h; 1000 IU/mL IFN-α2 for 0, 20, 60 or 120 min; 500 μM biotin for the last 15 min; RIPA lysis; streptavidin magnetic beads; label-free mass spectrometry, SAINTexpress against the similarly localized TurboID-GFP control (FC ≥ 4 stringent or FC ≥ 2 relaxed).

The target in assay [2] is T1, TurboID-V5-IRF9 (human). Nature of the assay: proximity labelling; independent small-scale TurboID experiments in MRC-5/hTERT lines performed as the screen; enriched biotinylated proteins (streptavidin pull-down) immunoblotted for the prey.
Assay [3] addresses TurboID-V5-STAT1 (human) (UniProt P42224). Described as above.
Assay [4] has as its target TurboID-V5-STAT2 (human) (UniProt P52630). The assay is described as above.
Assay [5] has as its target TurboID-V5-STAT1 (human) (UniProt P42224). Nature of the assay: proximity labelling; TurboID-tagged bait stably expressed in MRC-5/hTERT; serum-starved 20 h; 1000 IU/mL IFN-α2 for 0, 20, 60 or 120 min; 500 μM biotin for the last 15 min; RIPA lysis; streptavidin magnetic beads; label-free mass spectrometry, SAINTexpress against the similarly localized TurboID-GFP control (FC ≥ 4 stringent or FC ≥ 2 relaxed).

The target in assay [6] is TurboID-V5-STAT2 (human) (UniProt P52630). The assay is described as above.
The target of assay [7] is TurboID-V5-JAK1 (stable in MRC-5/hTERT) (human) (UniProt P23458). Described as above.
The target in assay [8] is TurboID-V5-TYK2 (stable in MRC-5/hTERT) (human) (UniProt P29597). Described as above.
Assay [9] addresses TurboID-V5-JAK1 (stable in MRC-5/hTERT) (human) (UniProt P23458). Nature of the assay: proximity labelling; independent small-scale TurboID experiments in MRC-5/hTERT lines performed as the screen; enriched biotinylated proteins (streptavidin pull-down) immunoblotted for the prey.
Assay [10] concerns the target TurboID-V5-TYK2 (stable in MRC-5/hTERT) (human) (UniProt P29597). The assay is described as above.

No constants are given. Whether binding was seen depends on the method and setting. Binding seen in cells or lysates may run through a third protein. These calls come from enrichment with a bait or labelling near it, and not all partners need be listed. For some of these results: Sequences can lack the tags named with a protein.

Take CNOT1 (from UniProt A5YKK6 1-2376): the binding result with TurboID-V5-IRF9 (human) [1] and in the assay with TurboID-V5-IRF9 (human) [2] was “binds” in each case.
For DNAJA2 (from UniProt O60884 1-412), the binding result in the assay with TurboID-V5-STAT1 (human) [3] and in the assay with TurboID-V5-STAT2 (human) [4] was “binds” each time.
As for ELAVL1 (from UniProt Q15717 1-326), the binding result with TurboID-V5-STAT1 (human) [5] was “binds”.
On to EP400 (from UniProt Q96L91 1-3159), for which the binding entry with TurboID-V5-STAT1 (human) [5] and with TurboID-V5-STAT2 (human) [6] was “binds” each time.
In the case of “IL6ST (from UniProt P40189 23-918) (receptor)”, the binding entry in assay [7], in assay [8], in assay [9] and in assay [10] was “binds” in each case.
In the case of KLC2 (from UniProt Q9H0B6 1-622), the binding entry in the assay with TurboID-V5-STAT2 (human) [4] is on record as “binds”.
For the substance “USP9X (from UniProt Q93008 1-2554) (enzyme)”, the binding entry with TurboID-V5-STAT2 (human) [6] was “binds”.
